From patent US7601702B2, “Dutpase Inhibitors” (Medivir AB, priority 2004, dated 2009)
Values after ≈ are worked out from the molar mass of the structure shown.

Test system: Trypanosoma cruzi Tulahuen C2C4 strain
Test: Trypanosoma cruzi whole cell assay
Type: cell-based
Conditions: L6
Method: The Trypanosoma cruzi Tulahuen C2C4 strain, containing the -galactosidase (Lac Z) gene, is used. The plasmid construct by Dr. S. Reed was obtained from Dr. F. Buckner, Seattle, as epimastigotes in LIT medium.
The infective amastigote and trypomastigote stages are cultivated in L-6 cells (rat skeletal myoblast cell line) in RPMI 1640 supplemented with 2 mM L-glutamine and 10% heat-activated foetal bovine serum in 12.5 cm^2 tissue culture flasks. Amastigotes develop intracellularly, differentiate into trypomastigotes and leave the host cell. These trypomastigotes infect new L-6 cells and are the stages used to initiate an infection in the assay. All cultures and assays are conducted at 37° C. under an atmosphere of 5% CO2 in air.
The stocks are kept at −20° C. For the assays, the compound is further diluted to the appropriate concentration using complete medium.
Assays are performed in sterile 96-well microtiter plates, each well containing 100 μl medium with 2×10^3 L-6 cells. […]
Then the substrate CPRG/Nonidet (50 l) is added to all wells. A colour reaction will become visible within 2-6 hours and can be read photometrically at 540 nm. Data are transferred into a graphic programme (e.g. EXCEL), sigmoidal inhibition curves determined and IC50 values calculated.

## O=C(Cn1ccnc1[N+](=O)[O-])NCc1ccccc1 [Benznidazole]
  IC50: 0.34 µg/mL (≈ 1.31 µM)
